# Tests used:
# Escherichia coli [1] = test: Estimated rate of [3H]DHS uptake in Escherichia coli K12 (ATCC 25868); format: functional; parameters: unit not given here
# Procedure, shortened: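 Cultures in tryptone-peptone broth at 37 °C with shaking, grown from OD600 ~0.05 to 0.20, then preexposed to antibiotic for 20 min at 37 °C. Cells pelleted, resuspended in equal volume fresh broth, pulsed 5.0 min at 37 °C with [3H]DHS (1.0 µCi/mL, 3.8 Ci/mmol). Samples filtered, washed with 0.1 M LiCl, scintillation counted. C50 = half-maximal rate estimated from dose-response curves.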
# Escherichia coli [2] = tested on: Escherichia coli;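 further: escherichia coli cells, read-out is the rate of enhanced [3H]DHS uptake, C50 being the level that yields half of the maximal rate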
smiles,measurement,setting,value
CNC1C(O)C(OC2C(N)CC(N)C(OC3OC(CN)CCC3N)C2O)OCC1(C)O (configuration not stated),Uptake at C50,Escherichia coli [1],4.7
same,C50,Escherichia coli [2],0.2 µM

# — ChEMBL document CHEMBL1123673, “Comparison of aminoglycoside antibiotics with respect to uptake and lethal activity in Escherichia coli” (J Med Chem, 1987)
